From article PMC11837617
Results are given in words; binding and its absence hold for the method and conditions named. Binding seen in cells or lysates may run through a third protein. Some entries that bind do so weakly or less than the wild type.

Chains of the proteins cited; added tags and fusions are not shown.
UniProt Q9Z0Z3: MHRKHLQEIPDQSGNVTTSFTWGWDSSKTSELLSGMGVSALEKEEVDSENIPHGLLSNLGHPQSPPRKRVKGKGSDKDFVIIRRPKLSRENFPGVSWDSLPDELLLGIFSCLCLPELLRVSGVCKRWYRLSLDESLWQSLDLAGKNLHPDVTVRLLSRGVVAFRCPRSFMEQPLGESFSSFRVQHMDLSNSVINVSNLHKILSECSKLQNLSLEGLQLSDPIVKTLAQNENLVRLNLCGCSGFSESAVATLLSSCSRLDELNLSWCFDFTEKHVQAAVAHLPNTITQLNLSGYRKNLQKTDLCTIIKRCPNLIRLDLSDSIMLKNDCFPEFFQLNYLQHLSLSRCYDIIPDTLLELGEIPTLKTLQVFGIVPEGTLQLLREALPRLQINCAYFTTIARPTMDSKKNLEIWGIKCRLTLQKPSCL
UniProt Q08775: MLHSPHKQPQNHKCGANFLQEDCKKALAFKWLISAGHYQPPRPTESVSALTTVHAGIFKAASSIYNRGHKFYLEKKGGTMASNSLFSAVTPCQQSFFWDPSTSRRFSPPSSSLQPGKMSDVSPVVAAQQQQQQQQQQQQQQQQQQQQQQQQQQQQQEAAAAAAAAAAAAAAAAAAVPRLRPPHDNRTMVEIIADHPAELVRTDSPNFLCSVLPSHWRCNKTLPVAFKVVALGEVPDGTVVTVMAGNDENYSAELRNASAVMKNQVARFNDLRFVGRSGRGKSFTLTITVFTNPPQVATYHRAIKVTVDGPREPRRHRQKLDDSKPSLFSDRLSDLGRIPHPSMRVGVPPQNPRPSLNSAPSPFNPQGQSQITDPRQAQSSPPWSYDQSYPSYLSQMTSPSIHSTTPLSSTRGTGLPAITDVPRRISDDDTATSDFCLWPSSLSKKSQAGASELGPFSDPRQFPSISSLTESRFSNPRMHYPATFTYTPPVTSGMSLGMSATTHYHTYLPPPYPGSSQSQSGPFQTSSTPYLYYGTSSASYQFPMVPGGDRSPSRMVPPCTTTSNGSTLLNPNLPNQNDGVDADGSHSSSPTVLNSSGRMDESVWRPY

Biological target: S-phase kinase-associated protein 2 (UniProt Q9Z0Z3)
Assay: co-IP; cells lysed in RIPA buffer on ice, lysate pre-cleared with protein A + G agarose, incubated with 1 µg antibody or IgG overnight at 4℃, precipitated with protein A + G agarose, Western blotting

binding: binds
Substance: Runt-related transcription factor 2 (from UniProt Q08775 1-607)
